Source: PubChem BioAssay AID588497 (NMMLSC, 2011)
Hit rate of the full screen: of about 360,000 compounds, about 780 (0.22%) were called active. This list was built around the results that the source calls inconclusive (neither active nor inactive); the mix of calls is not that of the screen. Rule as the data show it: active = inhibition above about 35% (passing the limit was not always enough); inconclusive = no clear call, values can overlap the other calls.

The compounds below were run on Botulinum neurotoxin type F light chain protease (Clostridium botulinum) (assay: BoNT/F light chain protease inhibitors, primary screen, biochemical, flow cytometry, MLPCN library (AID 588497; also: plate controls were buffer without enzyme for full effect and enzyme alone for no effect)). Details: Multiplex microsphere protease cleavage assay, at 10 µM, stronger effect = higher value.

| SMILES | inhibition |
| --- | --- |
| CSc1nnnn1-c1c(C)cc(C)cc1C | inconclusive: -38.7% |
| Cc1nc(NC(=O)CN2CCN(c3ccccc3F)CC2)sc1C(=O)N(C)C | inconclusive: 37.5% |
| Nc1cc(Br)cc2c1[nH]c(=O)c1ccccc12 | inactive: -4% |
| Cc1nc2cc(F)ccc2n1C1CCN(Cc2nnnn2CCc2ccccc2)CC1 | active: 42.1% |
| Cc1cc(-c2ccccc2)nc(N/N=C/c2ccccc2F)n1 | inconclusive: 9.2% |
| Cc1ccc2c(c1)c1c(n2CCc2ccc(C)nc2)CCN(C)C1 | inactive: -3.9% |
| CCCNC(=O)Nc1ccc2c(c1)N(C)C(=O)c1ccccc1S2 | inactive: -3.3% |
| CCCOc1ccc(N2C(=O)CC(N(CCCO)C(=O)CC)C2=O)cc1 (centres undefined) | inconclusive: 54.2% |
| NC(=O)c1ccc(NC(=O)C2COc3ccccc3O2)cc1 (centres undefined) | inconclusive: -45.2% |
| Cc1ccc(N(CC(=O)Nc2cc(C)ccc2C)S(C)(=O)=O)cc1 | inconclusive: -66.1% |
| O=C(O)c1c(C(=O)O)c(-c2ccc(F)cc2)n2c1CCC2 | inconclusive: 22% |
| CC(=O)N1CCN(c2ccc(NC(=O)c3cc(Cl)ccc3Cl)cc2)CC1 | inconclusive: -55% |
| CCCCc1cc(=O)oc2c(CN(C)C)c(O)c(Cl)cc12 | inactive: -3.3% |
| O=C(CN1CCOCC1)N/N=C/c1ccc(-c2cccc(Cl)c2Cl)o1 | inconclusive: 5% |
| Cn1c(SCc2ccccc2F)nc2ccccc2c1=O | inconclusive: -20% |
| COc1ccc(C2OC(=O)CC2C(=O)NC2CCCC(C)C2C)cc1OC (centres undefined) | inactive: 6% |
| CN1CCN(C(=O)c2cc3cc(Cl)ccc3[nH]2)CC1 | inconclusive: -28.2% |
| O=[N+]([O-])c1ccc(OCCn2cncn2)cc1 | inconclusive: -27.3% |
| O=c1cc(-c2cccs2)oc2ccc(Cl)cc12 | inactive: -0.2% |
| CCC(C(=O)NCc1ccc(C)cc1)c1ccccc1 (centres undefined) | inconclusive: -10.8% |
| CCN(CC)C(=O)CSc1nc2sc3c(c2c(=O)n1CCCOC)CCC3 | inconclusive: 8.3% |
| Cc1ccc(NC(=O)C2=C(C(=O)O)CCCC2)cc1Br | inconclusive: -202% |
| Oc1c(Br)cc(Br)cc1CNc1cccc2cccnc12 | inconclusive: -8.9% |
| CN1C(=O)c2cccc3c(S(N)(=O)=O)ccc1c23 | inconclusive: 3.1% |

3 entries out of the list, ordered by length of the SMILES, ascending.

| SMILES | inhibition |
| --- | --- |
| Oc1c(Br)cc(Br)cc1CNc1cccc2cccnc12 | inconclusive: -8.9% |
| Cc1ccc(N(CC(=O)Nc2cc(C)ccc2C)S(C)(=O)=O)cc1 | inconclusive: -66.1% |
| Cc1nc2cc(F)ccc2n1C1CCN(Cc2nnnn2CCc2ccccc2)CC1 | active: 42.1% |

Continuation.

| SMILES | inhibition |
| --- | --- |
| O=C(CN1CCN(c2ccccc2O)CC1)NC(=O)NCc1ccco1 | inactive: -3.6% |
| CCN1CCCC1CNC(=O)CCNC(=O)c1cc(OC)c(OC)c(OC)c1 (centres undefined) | inactive: -0.1% |
| CCOC(=O)Cc1nnc(NC(=O)c2ccccc2OCC)s1 | inactive: -2.2% |
| CC(=O)Nc1ccc(C2CC(c3ccc(Cl)cc3)=NN2c2ccccc2)cc1 (centres undefined) | inconclusive: 10.8% |
| O=C(NCc1ccccc1)NC12CC3CC(CC(C3)C1)C2 | inconclusive: -21% |
| COc1ccc([C@@H](O)[C@@H](N)c2ccccc2)cc1 | inconclusive: 3% |
| COc1cc(/C=N/NC(=O)CSc2ccccn2)ccc1OC(C)C | inconclusive: 13.3% |
| CC1=C(C(=O)OCCOC(C)C)C(c2cccc3ccccc23)NC(=O)N1 (centres undefined) | inconclusive: 0.3% |
| CC(C)C(OC(=O)C1CCCO1)C(=O)NC1CCCC1 (centres undefined) | inactive: 1.4% |
| Cc1ccccc1Cn1c(C)nc2ccc([N+](=O)[O-])cc2c1=O | inconclusive: 12.1% |
| CCS(=O)(=O)N1CCC(NC(=O)C(Cc2ccc(OC)c(OC)c2)NC(C)=O)CC1 (centres undefined) | inconclusive: 14.4% |
| COc1cc(CN2CCCCCC2)cc(Br)c1O | inconclusive: 12% |
| Cc1cccc(CC(=O)NC2CCCCCC2)c1 | inconclusive: 7.8% |
| C#Cc1cccc(-n2nnc(C(C)=O)c2C)c1 | inconclusive: 2% |
| COc1cc(C(=O)NCCNC(=O)C2CCCNC2=O)cc(OC)c1OC (centres undefined) | inconclusive: -45.3% |
| CC1(C)CC(=O)C2=C(C1)N(c1cccc(O)c1)C1=C(C2)C(=O)CC(C)(C)C1 | inconclusive: 10.7% |
| COC(=O)c1ccccc1N=Nc1c(C)noc1C | inconclusive: 48% |
| COc1ccc(OC)c(S(=O)(=O)N2CCC(C(=O)NCCC3=CCCCC3)CC2)c1 | inconclusive: -15.6% |
| O=C(c1ccc(NS(=O)(=O)c2ccc(F)cc2)cc1)N1CCOCC1 | inactive: 8.1% |
| COc1ccccc1CN1CC(C(=O)NCc2nc3ccccc3n2C)CCC1=O (centres undefined) | inactive: 2.6% |
| CCCc1nnc(NC(=O)c2cn(CC)c3cc(N4CCN(C)CC4)c(F)cc3c2=O)s1 | inconclusive: 6.3% |
| COc1ccc(/C=C2\C(=O)NCC(=O)N2Cc2ccccc2)cc1 | inactive: 4.6% |
| COc1ccc(-c2csc(NC3OC(=O)c4ccccc43)n2)cc1 (centres undefined) | inconclusive: -43.3% |
| O=C(Nc1ccc2oc(-c3ccc4ccccc4c3)nc2c1)c1ccc2c(c1)OCCO2 | inactive: -0.6% |

| SMILES | inhibition |
| --- | --- |
| COc1ccc(S(=O)(=O)N2CCC(C)CC2)cc1OC | inconclusive: -2.4% |
| CCOC(=O)c1ccc(N=Nc2c(C)[nH]n(-c3ccccc3)c2=O)cc1 | inconclusive: -21.4% |
| Cc1nn2c(NCCN3CCOCC3)c3c(nc2c1-c1ccccc1)CCCC3 | inconclusive: -36.1% |
| O=C(COc1ncnc2c(Cl)cc(Cl)cc12)N1CCCCC1 | inconclusive: -11.8% |
| O=[N+]([O-])c1cc2c(cc1CN1CCN(c3ccccc3)CC1)OCO2 | inconclusive: 3.3% |
| CC(=O)N(C1=NCCCS1)c1ccc(F)cc1 | inactive: 1.3% |
| COc1cccc(C2Nc3ccccc3NC3=C2C(=O)CC(C)(C)C3)c1OC (centres undefined) | inconclusive: 10.2% |
| CN(C)CCSC1c2ccccc2CSc2ccccc21 (centres undefined) | inconclusive: -31% |
| COc1ccc(NC(=O)NC(=O)c2cc(OCC(F)(F)F)ccc2OCC(F)(F)F)cc1 | inconclusive: -56.8% |
| CCn1cc(C(=O)NCC(OC)OC)c(=O)c2cc(S(=O)(=O)N3CCC(C)CC3)ccc21 | inactive: 3.1% |
| CC1(C(=O)O)CCC(C(=O)Nc2ccccc2O)C1(C)C (centres undefined) | inconclusive: -3.8% |
| O=[N+]([O-])c1cccc(S(=O)(=O)N2CCN(c3ccccn3)CC2)c1 | inactive: 14.5% |
| COc1ccc(/C=N/NC(=O)CCn2nc(C)cc2C)cc1 | inactive: 0.1% |
| COc1ccc(CNC(=O)C2CCN(S(=O)(=O)N3CCC(C)CC3)CC2)c(OC)c1 | inactive: 2% |
| CCOc1cc(C(=S)N2CCOCC2)ccc1OC(=O)c1cccc(C)c1 | inconclusive: 0.1% |
| CC(NC(=O)c1cc(-c2cccs2)on1)c1ccccc1 (centres undefined) | inactive: -2% |
| Cc1cc(=O)oc2cc(OC(C)C(=O)N3CCOCC3)ccc12 (centres undefined) | inactive: -2.3% |
| CC(C)(C)C(=O)Nc1ccccc1C(=O)Nc1cc(Cl)ccc1Cl | inactive: -1.4% |
| COc1ccccc1CN1CCCC(N2CCN(c3ccc(F)cc3)CC2)C1 (centres undefined) | inconclusive: -30.2% |
| COc1ccc(OC)c(CN2CCN(C(=O)c3ccco3)CC2)c1 | inconclusive: -12.9% |
| COC(=O)c1cc(NC(=O)c2cc(-c3ccc(C(F)(F)F)cc3)oc2C(F)(F)F)ccc1N1CCOCC1 | inconclusive: -25.3% |
| CN1CCN(CCN2CCn3c2nc2ccccc23)CC1 | inconclusive: 24.4% |
| Nc1nonc1-n1nnc(C(=O)N/N=C/c2ccco2)c1CSc1ccccc1 | inactive: -5.6% |
| CC1(CC(=O)N/N=C/c2ccc(-c3ccc(Cl)cc3)o2)OCCO1 | inactive: 4.1% |

| SMILES | inhibition |
| --- | --- |
| O=C(NC1(Cc2ccc(O)cc2)CCCCC1)c1ccccc1 | inconclusive: 5.9% |
| CCOC(=O)N1CCC(NC(=O)c2ccccc2C(=O)O)CC1 | inconclusive: 18.2% |
| Cc1nc(NCCc2ccccc2)c2nnn(Cc3ccccc3)c2n1 | inconclusive: 1.9% |
| COc1ccc(C(=O)COc2ccc3ccc(=O)oc3c2)cc1 | inactive: 2.7% |
| O=C(NCc1ccco1)C(Cc1ccccc1)N1C(=O)c2ccccc2C1=O (centres undefined) | inconclusive: -24.5% |
| Cc1cc(C)c2c(CN3CCCCC3C)cc(=O)oc2c1 (centres undefined) | inconclusive: -9.9% |
| COc1cc(/C=C(\C#N)C(=O)Nc2ccc(C(=O)O)cc2)ccc1OC(=O)c1cccc(F)c1 | inconclusive: -8% |
| CCSc1ccccc1C(=O)NCc1ccc(S(N)(=O)=O)cc1 | inactive: -2.3% |
| CCOc1cc(S(=O)(=O)NCCCn2ccnc2)ccc1Cl | inconclusive: 1% |
| CS(=O)(=O)c1ccc2nc(NC(=O)CCNC(=O)c3ccc(Cl)cc3)sc2c1 | inconclusive: -1.5% |
| Cc1ccccc1C(=O)Nc1ccnn1C1CCN(Cc2cccnc2)CC1 | inconclusive: -0.6% |
| S=c1[nH]nc(Cn2c(-c3ccccn3)nc3ccccc32)n1-c1ccc2c(c1)OCCO2 | inconclusive: -2.3% |
| Cn1ncc([N+](=O)[O-])c1C(=O)Nc1ccccc1C(=O)O | inconclusive: 28% |
| Cc1cccc(/C=C(\C#N)C(=O)Nc2ccccn2)c1 | inactive: 4.8% |
| CC1CC(=O)Nc2ccccc2N1S(=O)(=O)c1cccs1 (centres undefined) | inconclusive: -46.9% |
| CCn1c(=O)c(C(=O)Nc2ccccc2F)c(O)c2ccccc21 | inconclusive: -28% |
| Cc1ccc(SC(C)C(=O)N2CCN(c3ccccc3)CC2)cc1 (centres undefined) | inconclusive: -40.4% |
| O=c1nc(-c2ccccc2)n(-c2ccccc2)c2ncccc12 | inactive: -7.2% |
| COc1ccc(OC)c(NC(=O)c2ccccc2SC)c1 | inactive: -3.4% |
| Cc1ccc(SCC(=O)N2CCN(c3ccccn3)CC2)cc1 | inactive: 6.3% |
| CN(Cc1ccco1)S(=O)(=O)c1nnc(NC(=O)c2ccc(F)cc2)s1 | inactive: 4.2% |
| CC1(C)Cc2ccccc2C(=NC(Cc2c[nH]c3ccccc23)C(=O)O)N1 (centres undefined) | inconclusive: 14.9% |
